The list shows a part of the results.
Columns and labels:
Assay in all cases: log2 fold change, soluble protein after heating vs DMSO (PISA); higher = thermal stabilisation; K562 lysate, 10 uM; active = over 0.2 and 3.5 SD of the protein, either way, in both replicates (recomputed)
alvocidib = compound: CN1CC[C@H](c2c(O)cc(O)c3c(=O)cc(-c4ccccc4Cl)oc23)[C@H](O)C1 [alvocidib]
How it was run: (§1)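 To prepare the extract, K562 pellets were dounce-homogenised in PBS pH 7.4 with 1 mM MgCl2, giving crude material at 1 mg/mL protein. This was treated with 10 μM compound for 30 min, then heated in aliquots for 3 min over 48°C-58°C before pooling and addition of NP-40 to 0.5% at 4°C. Centrifugation at 21,000xg for 90 min left soluble protein in the supernatant, which TMTpro 16plex LC-MS/MS quantified with equalised channel sums. Results are log-two fold changes in thermal stability compared with solvent controls, from duplicates.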

Sequences of proteins named here, by UniProt entry; tags and fusion partners are left off. A change or cut given only in a name is not applied to a line headed by its entry.
UniProt Q96FV9: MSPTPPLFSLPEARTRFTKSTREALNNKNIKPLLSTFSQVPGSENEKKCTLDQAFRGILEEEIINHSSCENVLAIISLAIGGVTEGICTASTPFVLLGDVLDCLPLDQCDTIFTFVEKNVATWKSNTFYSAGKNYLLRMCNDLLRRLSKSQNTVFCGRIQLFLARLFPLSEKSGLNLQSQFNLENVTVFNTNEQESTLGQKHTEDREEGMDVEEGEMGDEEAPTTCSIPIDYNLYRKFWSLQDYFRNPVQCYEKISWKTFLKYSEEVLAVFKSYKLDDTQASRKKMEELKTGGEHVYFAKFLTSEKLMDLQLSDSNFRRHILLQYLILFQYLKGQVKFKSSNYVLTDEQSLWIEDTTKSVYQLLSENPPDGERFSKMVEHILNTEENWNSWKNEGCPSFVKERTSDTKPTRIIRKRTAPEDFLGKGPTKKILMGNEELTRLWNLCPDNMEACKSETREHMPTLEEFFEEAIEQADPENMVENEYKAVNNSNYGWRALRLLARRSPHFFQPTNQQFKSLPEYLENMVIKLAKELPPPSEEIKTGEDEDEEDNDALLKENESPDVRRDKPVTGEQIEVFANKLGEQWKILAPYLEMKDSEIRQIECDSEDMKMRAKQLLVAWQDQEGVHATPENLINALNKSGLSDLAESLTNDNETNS
UniProt Q96J01: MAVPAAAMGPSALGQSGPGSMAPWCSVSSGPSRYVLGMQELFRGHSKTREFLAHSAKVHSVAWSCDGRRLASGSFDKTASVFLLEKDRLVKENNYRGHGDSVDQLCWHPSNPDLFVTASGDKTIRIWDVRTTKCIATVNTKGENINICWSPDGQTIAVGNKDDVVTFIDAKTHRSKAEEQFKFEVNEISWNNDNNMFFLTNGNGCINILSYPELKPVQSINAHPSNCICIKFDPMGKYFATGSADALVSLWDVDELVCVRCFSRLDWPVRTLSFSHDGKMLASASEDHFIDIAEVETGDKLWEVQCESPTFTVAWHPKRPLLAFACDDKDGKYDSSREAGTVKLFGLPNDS
UniProt Q9Y3A6: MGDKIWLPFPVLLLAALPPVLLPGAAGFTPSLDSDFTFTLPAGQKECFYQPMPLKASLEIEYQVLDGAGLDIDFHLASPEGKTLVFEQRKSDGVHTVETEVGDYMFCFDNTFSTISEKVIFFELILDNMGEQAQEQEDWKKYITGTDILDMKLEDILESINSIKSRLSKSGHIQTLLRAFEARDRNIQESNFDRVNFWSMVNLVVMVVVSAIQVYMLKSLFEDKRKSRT
UniProt P21980: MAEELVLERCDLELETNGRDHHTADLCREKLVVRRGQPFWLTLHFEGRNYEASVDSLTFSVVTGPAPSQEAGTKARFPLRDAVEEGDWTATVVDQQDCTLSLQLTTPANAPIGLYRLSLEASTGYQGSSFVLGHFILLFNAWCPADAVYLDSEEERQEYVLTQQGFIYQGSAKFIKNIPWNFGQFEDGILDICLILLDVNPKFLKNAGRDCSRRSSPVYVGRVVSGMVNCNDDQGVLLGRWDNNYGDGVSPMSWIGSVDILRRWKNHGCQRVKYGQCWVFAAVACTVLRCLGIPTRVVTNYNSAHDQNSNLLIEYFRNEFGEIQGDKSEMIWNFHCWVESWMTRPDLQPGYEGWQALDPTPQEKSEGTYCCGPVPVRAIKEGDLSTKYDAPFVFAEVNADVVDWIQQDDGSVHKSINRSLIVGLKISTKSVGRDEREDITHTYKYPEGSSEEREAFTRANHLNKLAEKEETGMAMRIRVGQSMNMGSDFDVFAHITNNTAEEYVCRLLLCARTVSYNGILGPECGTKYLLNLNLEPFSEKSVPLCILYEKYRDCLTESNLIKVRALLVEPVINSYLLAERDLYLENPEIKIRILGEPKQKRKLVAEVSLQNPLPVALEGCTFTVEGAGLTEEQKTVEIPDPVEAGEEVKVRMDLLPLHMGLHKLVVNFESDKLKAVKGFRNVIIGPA
UniProt Q969X1: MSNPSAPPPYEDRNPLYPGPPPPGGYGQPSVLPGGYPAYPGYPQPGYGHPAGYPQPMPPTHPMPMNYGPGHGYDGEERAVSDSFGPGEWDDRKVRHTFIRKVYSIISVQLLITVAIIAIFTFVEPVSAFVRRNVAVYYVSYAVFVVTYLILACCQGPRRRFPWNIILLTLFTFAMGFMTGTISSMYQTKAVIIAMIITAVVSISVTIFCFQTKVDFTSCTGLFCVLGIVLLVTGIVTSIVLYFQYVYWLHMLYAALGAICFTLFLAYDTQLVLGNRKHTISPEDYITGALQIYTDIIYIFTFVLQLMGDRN
UniProt P55061, whole entry, looked up: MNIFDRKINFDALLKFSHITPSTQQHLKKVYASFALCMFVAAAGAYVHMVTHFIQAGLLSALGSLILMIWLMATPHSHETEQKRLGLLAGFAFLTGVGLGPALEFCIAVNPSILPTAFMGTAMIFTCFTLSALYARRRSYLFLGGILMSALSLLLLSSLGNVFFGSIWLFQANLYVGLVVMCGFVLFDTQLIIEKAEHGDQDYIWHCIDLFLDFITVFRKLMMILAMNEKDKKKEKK
UniProt Q08117: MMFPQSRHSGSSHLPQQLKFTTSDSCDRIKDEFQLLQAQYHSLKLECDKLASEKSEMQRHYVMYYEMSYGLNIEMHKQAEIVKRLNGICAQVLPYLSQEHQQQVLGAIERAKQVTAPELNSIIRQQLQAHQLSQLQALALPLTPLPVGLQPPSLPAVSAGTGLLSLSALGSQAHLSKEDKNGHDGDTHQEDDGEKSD
UniProt Q7Z7H5: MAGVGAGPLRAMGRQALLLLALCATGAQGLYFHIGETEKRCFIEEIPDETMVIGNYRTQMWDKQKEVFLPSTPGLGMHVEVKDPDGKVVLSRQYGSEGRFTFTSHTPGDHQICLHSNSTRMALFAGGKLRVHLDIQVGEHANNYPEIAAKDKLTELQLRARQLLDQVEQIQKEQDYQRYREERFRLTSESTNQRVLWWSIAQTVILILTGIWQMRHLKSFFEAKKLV
UniProt Q9Y5J9: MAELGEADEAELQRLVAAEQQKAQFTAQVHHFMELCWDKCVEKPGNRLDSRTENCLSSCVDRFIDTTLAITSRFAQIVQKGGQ
UniProt Q5T1C6: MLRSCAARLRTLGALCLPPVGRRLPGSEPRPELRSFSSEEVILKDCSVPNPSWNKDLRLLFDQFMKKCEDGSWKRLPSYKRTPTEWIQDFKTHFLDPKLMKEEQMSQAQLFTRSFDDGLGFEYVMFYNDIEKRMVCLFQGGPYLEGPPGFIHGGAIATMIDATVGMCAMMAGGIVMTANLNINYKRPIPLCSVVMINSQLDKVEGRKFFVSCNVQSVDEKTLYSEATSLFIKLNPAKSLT
UniProt O14925: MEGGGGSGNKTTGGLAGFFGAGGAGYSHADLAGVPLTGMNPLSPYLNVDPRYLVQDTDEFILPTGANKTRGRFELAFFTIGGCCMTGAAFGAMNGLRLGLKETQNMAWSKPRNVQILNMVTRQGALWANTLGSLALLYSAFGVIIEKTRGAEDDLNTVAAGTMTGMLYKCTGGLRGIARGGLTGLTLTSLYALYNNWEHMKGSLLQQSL
UniProt Q9Y4G6: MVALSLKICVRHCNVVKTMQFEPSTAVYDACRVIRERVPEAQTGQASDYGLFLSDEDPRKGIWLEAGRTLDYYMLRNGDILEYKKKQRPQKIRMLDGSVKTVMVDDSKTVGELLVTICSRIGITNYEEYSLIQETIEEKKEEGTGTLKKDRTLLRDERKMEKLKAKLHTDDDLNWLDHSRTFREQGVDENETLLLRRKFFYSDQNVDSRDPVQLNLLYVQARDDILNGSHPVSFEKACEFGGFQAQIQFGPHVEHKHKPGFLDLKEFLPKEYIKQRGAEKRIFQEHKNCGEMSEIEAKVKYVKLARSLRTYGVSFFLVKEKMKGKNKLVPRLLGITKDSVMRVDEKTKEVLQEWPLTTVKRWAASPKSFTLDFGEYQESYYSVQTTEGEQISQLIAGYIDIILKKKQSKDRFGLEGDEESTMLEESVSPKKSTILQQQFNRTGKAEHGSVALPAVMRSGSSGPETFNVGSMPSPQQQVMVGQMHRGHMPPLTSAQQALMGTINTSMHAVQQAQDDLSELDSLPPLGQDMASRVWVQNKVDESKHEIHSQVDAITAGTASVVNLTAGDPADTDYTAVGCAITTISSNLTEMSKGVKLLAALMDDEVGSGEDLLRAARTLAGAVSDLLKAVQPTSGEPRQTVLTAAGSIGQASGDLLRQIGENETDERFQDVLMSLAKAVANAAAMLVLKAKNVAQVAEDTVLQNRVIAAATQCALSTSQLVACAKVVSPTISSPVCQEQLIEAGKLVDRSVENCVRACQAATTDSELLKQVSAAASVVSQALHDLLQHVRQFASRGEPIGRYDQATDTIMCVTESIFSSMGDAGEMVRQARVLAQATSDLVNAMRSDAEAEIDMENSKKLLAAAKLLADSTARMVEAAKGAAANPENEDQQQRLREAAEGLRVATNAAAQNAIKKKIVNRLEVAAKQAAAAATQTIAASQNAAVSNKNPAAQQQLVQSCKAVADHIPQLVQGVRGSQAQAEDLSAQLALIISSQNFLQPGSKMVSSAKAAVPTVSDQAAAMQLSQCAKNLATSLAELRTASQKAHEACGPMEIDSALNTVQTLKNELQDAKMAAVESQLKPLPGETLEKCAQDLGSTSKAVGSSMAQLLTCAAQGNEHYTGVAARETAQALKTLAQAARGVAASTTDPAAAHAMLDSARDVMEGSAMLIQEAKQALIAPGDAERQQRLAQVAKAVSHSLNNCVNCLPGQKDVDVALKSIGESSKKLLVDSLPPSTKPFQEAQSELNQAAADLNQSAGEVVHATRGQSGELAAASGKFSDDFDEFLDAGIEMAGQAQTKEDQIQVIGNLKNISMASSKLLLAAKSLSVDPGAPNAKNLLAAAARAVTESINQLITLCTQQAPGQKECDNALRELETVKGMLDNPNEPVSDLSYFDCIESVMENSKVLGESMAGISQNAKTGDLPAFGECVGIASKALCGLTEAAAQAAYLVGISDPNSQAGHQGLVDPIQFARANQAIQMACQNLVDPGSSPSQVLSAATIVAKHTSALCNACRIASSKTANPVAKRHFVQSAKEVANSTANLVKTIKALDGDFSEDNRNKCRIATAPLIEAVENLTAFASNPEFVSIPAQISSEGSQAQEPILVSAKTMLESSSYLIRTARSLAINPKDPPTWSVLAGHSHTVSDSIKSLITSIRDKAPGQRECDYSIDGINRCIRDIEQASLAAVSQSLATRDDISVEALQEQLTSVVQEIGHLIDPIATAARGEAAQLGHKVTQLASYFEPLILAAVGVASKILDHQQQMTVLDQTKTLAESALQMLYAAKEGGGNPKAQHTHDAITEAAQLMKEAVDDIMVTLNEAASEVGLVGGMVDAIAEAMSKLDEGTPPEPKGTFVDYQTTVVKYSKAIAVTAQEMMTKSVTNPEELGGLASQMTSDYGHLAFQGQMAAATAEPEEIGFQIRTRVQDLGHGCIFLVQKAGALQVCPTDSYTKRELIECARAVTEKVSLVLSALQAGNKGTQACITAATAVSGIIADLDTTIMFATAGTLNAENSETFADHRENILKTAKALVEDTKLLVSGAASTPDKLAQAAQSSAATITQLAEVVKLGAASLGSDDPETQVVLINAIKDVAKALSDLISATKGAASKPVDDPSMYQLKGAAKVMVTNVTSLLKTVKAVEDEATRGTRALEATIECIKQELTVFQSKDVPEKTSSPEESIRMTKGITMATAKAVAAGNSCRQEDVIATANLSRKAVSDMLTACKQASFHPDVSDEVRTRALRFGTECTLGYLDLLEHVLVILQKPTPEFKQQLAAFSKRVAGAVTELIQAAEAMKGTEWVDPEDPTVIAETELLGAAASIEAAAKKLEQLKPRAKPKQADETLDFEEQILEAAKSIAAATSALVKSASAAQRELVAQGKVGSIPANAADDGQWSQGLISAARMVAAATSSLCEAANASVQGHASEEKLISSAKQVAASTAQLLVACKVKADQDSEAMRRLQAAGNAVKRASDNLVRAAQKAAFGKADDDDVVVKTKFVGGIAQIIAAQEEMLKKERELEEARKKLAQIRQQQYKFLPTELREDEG
UniProt Q96MV1: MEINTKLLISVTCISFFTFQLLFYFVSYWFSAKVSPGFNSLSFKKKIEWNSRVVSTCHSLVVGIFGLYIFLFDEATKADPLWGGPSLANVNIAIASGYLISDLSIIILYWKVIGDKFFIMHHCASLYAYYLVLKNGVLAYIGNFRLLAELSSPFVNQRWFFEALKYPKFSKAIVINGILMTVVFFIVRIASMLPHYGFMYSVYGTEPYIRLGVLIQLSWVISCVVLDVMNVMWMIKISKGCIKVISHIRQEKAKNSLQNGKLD
UniProt Q7Z7N9: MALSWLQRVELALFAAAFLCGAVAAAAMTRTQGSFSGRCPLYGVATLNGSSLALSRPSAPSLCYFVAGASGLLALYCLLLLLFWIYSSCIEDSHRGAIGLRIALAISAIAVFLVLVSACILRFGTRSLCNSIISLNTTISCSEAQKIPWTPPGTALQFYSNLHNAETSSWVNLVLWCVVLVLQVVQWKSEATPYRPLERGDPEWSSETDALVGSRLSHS

Tubastatin A = compound: CN1CCc2c(c3ccccc3n2Cc2ccc(C(=O)NO)cc2)C1 [Tubastatin A]
How it was run: as §1

[1] = compound: CNC(=O)C1=CC=CC=C1NC2=NC(=NC=C2Cl)NC3=C(C=C(C=C3)N4CCOCC4)OC
How it was run: as §1

defactinib = compound: CNC(=O)c1ccc(Nc2ncc(C(F)(F)F)c(NCc3nccnc3N(C)S(C)(=O)=O)n2)cc1 [defactinib]
How it was run: as §1

[2] = compound: CNc1nc(-c2ccc3c(N)n[nH]c3c2)cc(N2C[C@@H](C(=O)NC3CCCCC3)CC[C@H]2C)n1
How it was run: as §1

encorafenib = compound: COC(=O)N[C@@H](C)CNc1nccc(-c2cn(C(C)C)nc2-c2cc(Cl)cc(NS(C)(=O)=O)c2F)n1 [encorafenib]
How it was run: as §1

[3] = compound: COC(=O)[C@H](CCSC)NC(=O)C1=C(C=C(C=C1)NC[C@H](CS)N)C2=CC=CC=C2
How it was run: as §1

alisertib = compound: COc1cc(Nc2ncc3c(n2)-c2ccc(Cl)cc2C(c2c(F)cccc2OC)=NC3)ccc1C(=O)O [alisertib]
How it was run: as §1

[4] = compound: COc1cc2nc(-c3cc(F)ccc3O)nc(N[C@@H]3CNC[C@H]3C(C)(C)O)c2cc1OC
How it was run: as §1

gefitinib = compound: COc1cc2ncnc(Nc3ccc(F)c(Cl)c3)c2cc1OCCCN1CCOCC1 [gefitinib]
How it was run: as §1

lapatinib = compound: CS(=O)(=O)CCNCc1ccc(-c2ccc3ncnc(Nc4ccc(OCc5cccc(F)c5)c(Cl)c4)c3c2)o1 [lapatinib]
How it was run: as §1

pictilisib = compound: CS(=O)(=O)N1CCN(Cc2cc3nc(-c4cccc5[nH]ncc45)nc(N4CCOCC4)c3s2)CC1 [pictilisib]
How it was run: as §1

crizotinib = compound: C[C@@H](Oc1cc(-c2cnn(C3CCNCC3)c2)cnc1N)c1c(Cl)ccc(F)c1Cl [crizotinib]
How it was run: as §1

[5] = compound: C[C@H](C1=CC=C(C=C1)C(=O)NC2=C3C=CNC3=NC=C2)N
How it was run: as §1

duvelisib = compound: C[C@H](Nc1ncnc2nc[nH]c12)c1cc2cccc(Cl)c2c(=O)n1-c1ccccc1 [duvelisib]
How it was run: as §1

gandotinib = compound: Cc1cc(Nc2cc(CN3CCOCC3)c3nc(C)c(Cc4ccc(Cl)cc4F)n3n2)n[nH]1 [gandotinib]
How it was run: as §1

tozasertib = compound: Cc1cc(Nc2cc(N3CCN(C)CC3)nc(Sc3ccc(NC(=O)C4CC4)cc3)n2)n[nH]1 [tozasertib]
How it was run: as §1

doramapimod = compound: Cc1ccc(-n2nc(C(C)(C)C)cc2NC(=O)Nc2ccc(OCCN3CCOCC3)c3ccccc23)cc1 [doramapimod]
How it was run: as §1

bafetinib = compound: Cc1ccc(NC(=O)c2ccc(CN3CC[C@H](N(C)C)C3)c(C(F)(F)F)c2)cc1Nc1nccc(-c2cncnc2)n1 [bafetinib]
How it was run: as §1

[6] = compound: Cc1cccc(CC(=O)N2CCc3c2ccc(-c2cn(C)c4ncnc(N)c24)c3F)n1
How it was run: as §1

Measured: log2 fold change

THOC1 (UniProt Q96FV9)
inactive: alvocidib -0.012 | Tubastatin A -0.056 | [1] -0.009 | defactinib 0.009 | [2] -0.037 | encorafenib 0.01 | [3] 0.07 | alisertib -0.011 | [4] 0.001 | gefitinib 0.032 | lapatinib -0.004 | pictilisib 0.008 | crizotinib -0.022 | [5] -0.096 | duvelisib 0.009 | gandotinib -0.01 | tozasertib 0.028 | doramapimod 0.025 | bafetinib -0.006 | [6] 0.038

THOC3 (UniProt Q96J01)
inactive: alvocidib 0.002 | Tubastatin A -0.047 | [1] -0.011 | defactinib 0.038 | [2] -0.047 | encorafenib -0.044 | [3] 0.053 | alisertib -0.003 | [4] -0.002 | gefitinib -0.065 | lapatinib 0.007 | pictilisib -0.001 | crizotinib 0.01 | [5] 0.029 | duvelisib -0.016 | gandotinib -0.022 | tozasertib -0.015 | doramapimod 0.031 | bafetinib -0.031 | [6] -0.02

TMED5 (UniProt Q9Y3A6)
inactive: alvocidib -0.01 | Tubastatin A 0.031 | [1] -0.033 | defactinib 0.029 | [2] 0.013 | encorafenib 0.013 | [3] -0.019 | alisertib 0.017 | [4] -0.043 | gefitinib 0.023 | lapatinib -0.059 | pictilisib 0.001 | crizotinib 0.072 | [5] -0.015 | duvelisib 0.019 | gandotinib -0.033 | tozasertib 0.016 | doramapimod -0.055 | bafetinib -0.017 | [6] 0.004

TGM2 (UniProt P21980)
inactive: alvocidib 0.001 | Tubastatin A -0.032 | [1] -0.007 | defactinib -0.008 | [2] -0.035 | encorafenib -0.017 | [3] 0.074 | alisertib -0.008 | [4] 0.002 | gefitinib -0.014 | lapatinib -0.005 | pictilisib 0.005 | crizotinib -0.044 | [5] -0.008 | duvelisib 0.001 | gandotinib -0.021 | tozasertib -0.004 | doramapimod -0.007 | bafetinib -0.021 | [6] 0.02

TIMELESS (UniProt Q9UNS1)
inactive: alvocidib -0.017 | Tubastatin A -0.149 | [1] 0.031 | defactinib 0 | [2] -0.039 | encorafenib 0.039 | [3] 0.105 | alisertib -0.011 | [4] 0.049 | gefitinib 0.017 | lapatinib 0.017 | pictilisib -0.017 | crizotinib -0.077 | [5] -0.042 | duvelisib -0.029 | gandotinib -0.12 | tozasertib -0.026 | doramapimod -0.02 | bafetinib -0.082 | [6] 0.032

Four neighbouring entries out of the list so far, for reference:
THOC1 (UniProt Q96FV9)
inactive: alvocidib -0.012 | Tubastatin A -0.056 | [1] -0.009 | defactinib 0.009 | [2] -0.037 | encorafenib 0.01 | [3] 0.07 | alisertib -0.011 | [4] 0.001 | gefitinib 0.032 | lapatinib -0.004 | pictilisib 0.008 | crizotinib -0.022 | [5] -0.096 | duvelisib 0.009 | gandotinib -0.01 | tozasertib 0.028 | doramapimod 0.025 | bafetinib -0.006 | [6] 0.038

THOC3 (UniProt Q96J01)
inactive: alvocidib 0.002 | Tubastatin A -0.047 | [1] -0.011 | defactinib 0.038 | [2] -0.047 | encorafenib -0.044 | [3] 0.053 | alisertib -0.003 | [4] -0.002 | gefitinib -0.065 | lapatinib 0.007 | pictilisib -0.001 | crizotinib 0.01 | [5] 0.029 | duvelisib -0.016 | gandotinib -0.022 | tozasertib -0.015 | doramapimod 0.031 | bafetinib -0.031 | [6] -0.02

TMED5 (UniProt Q9Y3A6)
inactive: alvocidib -0.01 | Tubastatin A 0.031 | [1] -0.033 | defactinib 0.029 | [2] 0.013 | encorafenib 0.013 | [3] -0.019 | alisertib 0.017 | [4] -0.043 | gefitinib 0.023 | lapatinib -0.059 | pictilisib 0.001 | crizotinib 0.072 | [5] -0.015 | duvelisib 0.019 | gandotinib -0.033 | tozasertib 0.016 | doramapimod -0.055 | bafetinib -0.017 | [6] 0.004

TGM2 (UniProt P21980)
inactive: alvocidib 0.001 | Tubastatin A -0.032 | [1] -0.007 | defactinib -0.008 | [2] -0.035 | encorafenib -0.017 | [3] 0.074 | alisertib -0.008 | [4] 0.002 | gefitinib -0.014 | lapatinib -0.005 | pictilisib 0.005 | crizotinib -0.044 | [5] -0.008 | duvelisib 0.001 | gandotinib -0.021 | tozasertib -0.004 | doramapimod -0.007 | bafetinib -0.021 | [6] 0.02

(listing goes on)

TMA16 (UniProt Q96EY4)
inactive: alvocidib -0.021 | Tubastatin A -0.093 | [1] -0.002 | defactinib -0.042 | [2] 0.054 | encorafenib -0.064 | [3] 0.036 | alisertib -0.008 | [4] -0.004 | gefitinib -0.062 | lapatinib -0.017 | pictilisib -0.022 | crizotinib -0.018 | [5] -0.033 | duvelisib -0.019 | gandotinib -0.028 | tozasertib 0.015 | doramapimod 0.016 | bafetinib -0.051 | [6] 0.036

TMBIM1 (UniProt Q969X1)
inactive: alvocidib -0.072 | Tubastatin A 0.021 | [1] -0.003 | defactinib 0.007 | [2] -0.087 | encorafenib -0.052 | [3] -0.075 | alisertib 0.05 | [4] 0.022 | gefitinib -0.054 | lapatinib 0.065 | pictilisib -0.014 | crizotinib -0.019 | [5] -0.077 | duvelisib -0.005 | gandotinib 0.038 | tozasertib 0.177 | doramapimod 0.04 | bafetinib -0.044 | [6] 0.008

TMBIM6 isoform 2 (UniProt P55061)
inactive: alvocidib 0.081 | Tubastatin A -0.006 | [1] -0.004 | defactinib 0.084 | [2] 0.064 | encorafenib 0.074 | [3] -0.028 | alisertib -0.016 | [4] -0.068 | gefitinib 0.002 | lapatinib -0.016 | pictilisib -0.033 | crizotinib -0.012 | [5] -0.054 | duvelisib -0.031 | gandotinib 0.002 | tozasertib 0.114 | doramapimod -0.056 | bafetinib -0.042 | [6] -0.012

TLE5 isoform 2 (UniProt Q08117)
inactive: alvocidib -0.022 | Tubastatin A 0.113 | [1] 0.036 | defactinib 0.069 | [2] 0.007 | encorafenib 0.014 | [3] 0.035 | alisertib 0.025 | [4] 0.012 | gefitinib -0.087 | lapatinib 0.077 | pictilisib -0.075 | crizotinib 0.006 | [5] 0.007 | duvelisib 0.052 | gandotinib 0.006 | tozasertib 0.119 | doramapimod 0.006 | bafetinib 0.03 | [6] 0.065

TMED4 (UniProt Q7Z7H5)
inactive: alvocidib 0.027 | Tubastatin A 0.075 | [1] 0.028 | defactinib -0.011 | [2] 0.027 | encorafenib 0.016 | [3] -0.025 | alisertib 0.015 | [4] 0.002 | gefitinib -0.011 | lapatinib 0.016 | pictilisib 0.052 | crizotinib 0 | [5] 0.192 | duvelisib -0.007 | gandotinib 0.017 | tozasertib -0.012 | doramapimod -0.002 | bafetinib 0.043 | [6] 0.015

TIMM8B (UniProt Q9Y5J9)
inactive: alvocidib 0.097 | Tubastatin A 0.038 | [1] 0.037 | defactinib 0.126 | [2] -0.009 | encorafenib -0.045 | [3] 0.037 | alisertib 0.035 | [4] -0.03 | gefitinib -0.241 | lapatinib 0.069 | pictilisib -0.059 | crizotinib 0.032 | [5] 0.199 | duvelisib 0.11 | gandotinib -0.105 | tozasertib 0.074 | doramapimod 0.031 | bafetinib -0.002 | [6] -0.136

THEM4 (UniProt Q5T1C6)
inactive: alvocidib 0.029 | Tubastatin A 0.032 | [1] 0.008 | defactinib 0.025 | [2] 0.015 | encorafenib 0.014 | [3] -0.012 | alisertib 0.07 | [4] 0.017 | gefitinib 0.042 | lapatinib 0.008 | pictilisib 0.008 | crizotinib -0.014 | [5] 0.005 | duvelisib 0.012 | gandotinib 0.026 | tozasertib -0.018 | doramapimod 0.036 | bafetinib 0.011 | [6] -0.047

TIMM23 (UniProt O14925)
inactive: alvocidib -0.024 | Tubastatin A 0.017 | [1] 0.067 | defactinib -0.063 | [2] 0.026 | encorafenib -0.008 | [3] 0.032 | alisertib -0.055 | [4] 0.038 | gefitinib 0.004 | lapatinib 0.033 | pictilisib -0.029 | crizotinib -0.012 | [5] -0.052 | duvelisib -0.002 | gandotinib 0.004 | tozasertib 0 | doramapimod 0.003 | bafetinib -0.006 | [6] 0.063

TLN2 (UniProt Q9Y4G6)
inactive: alvocidib -0.016 | Tubastatin A 0.002 | [1] 0 | defactinib -0.023 | [2] 0.006 | encorafenib -0.007 | [3] 0.026 | alisertib 0.012 | [4] -0.01 | gefitinib -0.008 | lapatinib -0.004 | pictilisib -0.02 | crizotinib 0.007 | [5] 0.035 | duvelisib -0.005 | gandotinib -0.02 | tozasertib -0.006 | doramapimod 0.033 | bafetinib -0.042 | [6] -0.021

TLCD4 (UniProt Q96MV1)
inactive: alvocidib -0.097 | Tubastatin A -0.041 | [1] -0.108 | defactinib 0.075 | [2] -0.171 | encorafenib 0.035 | [3] -0.045 | alisertib -0.027 | [4] -0.006 | gefitinib -0.012 | lapatinib -0.001 | pictilisib -0.025 | crizotinib 0.113 | [5] -0.173 | duvelisib 0.045 | gandotinib 0.089 | tozasertib -0.064 | doramapimod -0.097 | bafetinib -0.039 | [6] 0.09

TMEM179B (UniProt Q7Z7N9)
inactive: alvocidib -0.068 | Tubastatin A 0.163 | [1] 0.125 | defactinib 0.012 | [2] 0.013 | encorafenib 0.046 | [3] -0.07 | alisertib 0 | [4] 0.029 | gefitinib -0.064 | lapatinib 0.014 | pictilisib 0.016 | crizotinib -0.07 | [5] -0.039 | duvelisib 0.019 | gandotinib 0.08 | tozasertib 0.089 | doramapimod -0.201 | bafetinib -0.058 | [6] 0.092

From the supplement of paper PMC10849652
